One substance from paper PMC4510650, “TD-60 links RalA GTPase function to the CPC in mitosis” (Nature Communications, 2015) can be followed below.

The chains behind the UniProt entries cited, without tags or fusion partners.
UniProt Q9P258: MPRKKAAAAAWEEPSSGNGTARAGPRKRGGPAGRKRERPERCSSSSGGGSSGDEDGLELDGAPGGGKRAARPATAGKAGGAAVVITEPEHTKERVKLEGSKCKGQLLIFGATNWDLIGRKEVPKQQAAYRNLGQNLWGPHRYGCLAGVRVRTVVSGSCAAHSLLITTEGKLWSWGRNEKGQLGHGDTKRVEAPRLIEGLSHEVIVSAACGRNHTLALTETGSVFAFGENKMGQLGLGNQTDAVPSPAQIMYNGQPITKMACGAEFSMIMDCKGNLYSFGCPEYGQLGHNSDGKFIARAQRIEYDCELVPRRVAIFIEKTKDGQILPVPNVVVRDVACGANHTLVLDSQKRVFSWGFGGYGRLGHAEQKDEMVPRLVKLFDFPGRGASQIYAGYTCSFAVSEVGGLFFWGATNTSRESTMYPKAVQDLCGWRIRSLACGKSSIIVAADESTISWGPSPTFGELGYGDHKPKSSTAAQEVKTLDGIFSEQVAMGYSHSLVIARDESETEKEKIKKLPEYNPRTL

These are yes or no findings as the source states them, for the method shown. Binding seen in cells or lysates may run through a third protein. Some entries that bind do so weakly or less than the wild type. Sequences can lack the tags named with a protein.

The test deals with T1, GFP-tagged RalA G26A (GDP-locked) (human) (UniProt P11233).
T1 sequence: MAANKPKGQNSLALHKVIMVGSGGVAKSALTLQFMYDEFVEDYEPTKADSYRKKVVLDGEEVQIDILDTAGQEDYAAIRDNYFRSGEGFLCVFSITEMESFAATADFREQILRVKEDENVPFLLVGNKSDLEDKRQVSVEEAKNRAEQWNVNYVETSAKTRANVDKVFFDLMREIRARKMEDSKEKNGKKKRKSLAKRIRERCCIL
The experiment in a line: co-IP; GFP-Trap-M magnetic beads on lysates of transfected HeLa Kyoto cells (48 h); lysis buffer 50 mM Tris pH 8.0, 0.4 M NaCl, 0.5% NP-40, 0.5% deoxycholate; immunoblot for GFP and TD-60/RCC2. A general note: In western blotting, separated proteins are transferred to a membrane and probed.

Consider “endogenous TD-60 (from UniProt Q9P258 1-522)”, for which the binding result was “binds”.
